These are yes or no findings as the source states them, for the method shown. For some assays here: In cells and extracts the contact can be indirect. Some results given as binding are weak or reduced against the parent protein; the word gives no strength. For some assays here: Where a sequence is shown, tags or fusion partners need not be part of it.

Amino acid sequences for entries named in this document (tags omitted). A change or cut given only in a name is not applied to a line headed by its entry.
UniProt Q93WI9: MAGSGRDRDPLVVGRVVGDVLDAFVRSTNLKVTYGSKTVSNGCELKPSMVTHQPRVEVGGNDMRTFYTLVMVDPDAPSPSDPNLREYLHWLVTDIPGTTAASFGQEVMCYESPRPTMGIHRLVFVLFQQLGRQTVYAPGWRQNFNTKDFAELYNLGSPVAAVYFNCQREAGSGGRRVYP

Experimental findings from patent publication US20130019345A1 (NATIONAL UNIVERSITY CORPORATION NARA INSTITUTE OF SCIENCE …, published 2013) are described below.

The target in assay [1] is T1, GST-fused GF14c protein (full-length GF14c, residues 1 to 256) (rice) (UniProt Q6ZKC0).
T1 sequence: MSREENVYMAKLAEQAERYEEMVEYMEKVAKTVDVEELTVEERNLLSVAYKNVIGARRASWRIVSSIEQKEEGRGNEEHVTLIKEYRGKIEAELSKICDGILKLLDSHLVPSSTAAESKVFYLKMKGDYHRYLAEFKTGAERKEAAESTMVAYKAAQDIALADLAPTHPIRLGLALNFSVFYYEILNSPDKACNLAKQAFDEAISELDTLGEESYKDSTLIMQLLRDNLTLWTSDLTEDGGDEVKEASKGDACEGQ
The assay can be described thus: in vitro GST pull-down, GST-GF14c on glutathione resin, SDS-PAGE.

In assay [2] the target is 15N stable isotope-labeled Hd3a protein (rice) (UniProt Q93WI9). The assay can be described thus: 15N-HSQC NMR, 0.2 mM 15N-Hd3a with GF14c at a molar ratio of 1:0.5.

In the case of “full-length Hd3a (residues 1 to 179), not fused with GST (from UniProt Q93WI9 1-179)”, the binding result in assay [1] was “binds”.

B1: GF14c protein unlabeled with a stable isotope (protein)
chain: MSREENVYMAKLAEQAERYEEMVEYMEKVAKTVDVEELTVEERNLLSVAYKNVIGARRASWRIVSSIEQKEEGRGNEEHVTLIKEYRGKIEAELSKICDGILKLLDSHLVPSSTAAESKVFYLKMKGDYHRYLAEFKTGAERKEAAESTMVAYKAAQDIALADLAPTHPIRLGLALNFSVFYYEILNSPDKACNLAKQAFDEAISELDTLGEESYKDSTLIMQLLRDNLTLWTSDLTEDGGDEVKEASKGDACEGQ
Turning to B1, the binding result in assay [2] is “binds”.
